In the supplement of paper PMC12889115:
Some of the results follow. Values are raw readings; no control value is given beside them.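 In the initial screen, polymyxin B was used at a concentration that permeabilizes Salmonella's outer membrane but not its inner membrane. Maximum growth was set by DMSO wells with or without polymyxin B. Since plates varied, data were ranked per plate, and compounds giving the lowest OD600 advanced as hits.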

Test system: Salmonella enterica serovar Typhimurium SL1344
Assay: bacterial growth OD600 after 18 h with compound and polymyxin B; higher = more bacterial growth (less inhibition)
Conditions: 50 µM, Mueller-Hinton broth

| Structure (SMILES) | bacterial growth OD600 (polymyxin B 1 µg/mL) | bacterial growth OD600 (polymyxin B 0.75 µg/mL) |
| --- | --- | --- |
| O=C(CCn1cnc2ccccc21)N1CCCC(CNS(=O)(=O)c2cccs2)C1 (stereo unspecified) | 0.786 |  |
| CN(CC1CCOCC1)C(=O)c1cc(COc2ccc(-n3cncn3)cc2)on1 | 0.882 |  |
| Cc1ccc(OCCN(C)C(=O)C2CC23CCN(Cc2ccc(F)cc2F)CC3)cc1 (stereo unspecified) |  | 0.789 |
| O=C(NCCC(c1ccccc1)c1ccccc1)C1CC12CCN(C(=O)c1ccc[n+]([O-])c1)CC2 (stereo unspecified) |  | 0.737 |
| c1cncc(-c2ncc3c(n2)CCCC3NCC2CCCCC2)c1 (stereo unspecified) |  | 0.786 |
| CS(=O)(=O)N1CCCC1C(=O)Nc1ccc(-c2cccc(F)c2)cc1 (stereo unspecified) |  | 0.569 |
| O=C(NCc1ccccc1)c1cccc(OC2CCN(Cc3ccon3)CC2)c1 | 0.958 |  |
| CCN(CCO)C(=O)CC1(c2ccccc2)CC(=O)N(Cc2ccc3c(c2)OCO3)C1=O (stereo unspecified) |  | 0.741 |
| COc1cc(-c2nc(CN3CCN(C)C(=O)[C@@H]3C)c(C)o2)ccc1F | 0.869 |  |
| Cc1cn2c(C(=O)N3CCCC(CNS(=O)(=O)Cc4ccccc4)C3)csc2n1 (stereo unspecified) |  | 0.757 |
| O=C(c1ccco1)N1CCCC(N2CCN(Cc3ccc4c(c3)OCO4)CC2)C1 (stereo unspecified) | 0.862 |  |
| CC1(C)[C@H]2CC=C(CCNC3CCN(c4ccc(C(=O)N[C@H]5CCCCNC5=O)cc4)CC3)[C@@H]1C2 |  | 0.76 |
| CC(C)(C)CN1CCC(C2CCN(Cc3nccs3)CC2)C1 (stereo unspecified) |  | 0.754 |
| COc1ccc(OC)c(CN2CCN(Cc3ccccc3F)C(CCO)C2)c1 (stereo unspecified) | 0.932 |  |
| COC(=O)C1CCCCN1C(=O)CC1(c2cccc(C(F)(F)F)c2)CC(=O)N(C2CC2)C1=O (stereo unspecified) |  | 0.805 |
| CNc1ccc(C(=O)N2CCCC(Cn3ccnc3)C2)cn1 (stereo unspecified) |  | 0.986 |

| Structure (SMILES) | bacterial growth OD600 (polymyxin B 1 µg/mL) | bacterial growth OD600 (polymyxin B 0.75 µg/mL) |
| --- | --- | --- |
| Cc1noc(-c2ccc(NCCN3CCCCC3=O)nc2)n1 | 1.28 |  |
| Cc1cc(C)cc(C(=O)NC2CC(=O)N(Cc3ccc(F)cc3)C2)c1 (stereo unspecified) | 0.876 |  |
| Clc1ccc(N2CCN(Cc3nc(-c4cccs4)no3)CC2)nc1 | 0.778 |  |
| Cc1ncc2c(c1CNC(=O)/C=C/c1cccs1)CCN(C(=O)c1cccc(Cn3cccn3)c1)C2 |  | 0.796 |
| O=C(CC1(c2ccccc2)CC(=O)N(CCCOc2cccnc2)C1=O)N1CCc2ccccc2C1 (stereo unspecified) |  | 0.042 |
| CC(C)Oc1ccc(C(=O)N2CCC3(CC2)CC3C(=O)N2CCN(c3ccccn3)CC2)cc1 (stereo unspecified) |  | 0.927 |
| COc1ccc(CCCN2C(=O)O[C@@H]3CN(c4ccnc(SC)n4)C[C@@H]32)cc1 | 1.04 |  |
| COCCn1cnc2cc(NC(=O)C3CCCCC3)cc(C(=O)N(C)Cc3ccc(F)cc3)c21 |  | 0.731 |
| Cc1c(C(C)NC(=O)NCCc2ccccc2)cnn1-c1ccccn1 (stereo unspecified) |  | 0.857 |
| Cc1cccc2c(NCc3ccccc3F)nc(CNC(=O)CN3CC(c4ccccc4)CC3=O)nc12 (stereo unspecified) |  | 0.015 |
| CCc1csc(CNC(=O)c2ccc(N(C)Cc3ccccn3)nc2)n1 | 0.775 |  |
| Cc1cccnc1CN(C)C(=O)C1CCC(=O)N(CCc2cccc(F)c2)C1 (stereo unspecified) | 0.901 |  |
| O=C(c1ccc(NCC2CCOCC2)nc1)N1CCCC(c2ccccc2)CC1 (stereo unspecified) |  | 0.696 |
| CCOC(=O)C1(CCCc2ccccc2)CCN(C(=O)c2cnn(CC)c2)CC1 | 0.732 |  |
| CCOC(=O)C1(Cc2cccc(F)c2)CCN(C(=O)c2cnc(C)cn2)CC1 | 0.98 |  |

A second format for 2 compounds above.
Structure (SMILES)	bacterial growth OD600 (polymyxin B 1 µg/mL)	bacterial growth OD600 (polymyxin B 0.75 µg/mL)
O=C(NCc1ccccc1)c1cccc(OC2CCN(Cc3ccon3)CC2)c1	0.958	
COC(=O)C1CCCCN1C(=O)CC1(c2cccc(C(F)(F)F)c2)CC(=O)N(C2CC2)C1=O (stereo unspecified)		0.805
